Source: PubChem BioAssay AID1259415 (National Center for Advancing Translational Sciences (NCATS), 2018)
The campaign covered roughly 410,000 compounds. About 18,000 (4.4%) were called active. Inconclusive means that the source gave no clear call. Such entries were picked first, then a sample of the others. Cut-off read from the data, not from the text of the source: active = activity change below about -60%; inconclusive = no clear call, values can overlap the other calls; inactive = above about -39%.

Test: qHTS Assay for inhibitors of the human cytomegalovirus (HCMV)
Conditions: HFF cells, HCMV-luciferase reporter, 72 h; at 57.5 µM; hits give low values
Outline: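 Cell-based, HFFs, 1000 cells/well, 16 h 37C; cpds in DMSO + HCMV-luc, MOI 1 PFU/cell; 72 h 37C; OneGlo luminescence after 5 min RT; norm. to buffer vs Salinomycin 10uM.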
% is set by controls: 0 for no effect and ±100 for the full control effect.

SMILES	activity change, negative = inhibition
Brc1ccc2ncnc(NCc3ccco3)c2c1	active: -87.1%
CCCCCS(=O)(=O)c1oc(-c2cccs2)nc1S(=O)(=O)c1ccc(C)cc1	active: -88.2%
Cc1cccnc1NCc1ccc(O)c2ncccc12	inconclusive: -49.6%
CC(C)(C)OC(=O)N1CCC(c2c(C(=O)N3CCC(c4ccccc4)C3)cnn2-c2cccc(Cl)c2)CC1 (configuration not stated)	inactive: 27.1%
CC(=O)Nc1ccc(C(=S)NCCCO)cc1	inactive: 48.9%
C/C(NC(=O)c1cccc(F)c1)=C1/C(=O)C[C@@H]2[C@H]1C2(C)C	inactive: 30.4%
O=C(CSc1nc2ccccc2c(=O)n1Cc1ccco1)c1ccccc1	active: -69.1%
O=C(NCC1CCN(Cc2cccc(Cl)c2)CC1)Nc1cc(Cl)ccc1Cl	inconclusive: -41.7%
O=C(O)CCc1nc2cc(Cl)ccc2n(Cc2ccccc2)c1=O	inconclusive: -43.7%
CC(O)(c1cccnc1)c1nc(-c2ccc3c(c2)OCO3)cs1 (configuration not stated)	inconclusive: -43.8%
O=C(N[C@@H](Cc1ccccc1)C(=O)OCc1ccccc1)c1nc[nH]c1C(=O)N1CCNCC1	active: -83.5%
CC(C)C(NC(=O)c1ccccc1F)C(=O)NCC(c1ccco1)N1CCCCC1 (configuration not stated)	active: -63.7%
COc1ccc(NC(=O)c2ccc(-c3ccccc3)cc2)cc1NS(=O)(=O)c1ccc(F)cc1	active: -94.9%
CCOc1ccccc1NC(=O)c1nn(-c2ccc(C)cc2)c(=O)n(C)c1=O	inactive: 9.83%
O=S(=O)(Nc1cccc(-n2cnnn2)c1)c1ccc(F)cc1	inactive: -23.7%
O=C(CSc1nccn1-c1ccc(F)cc1)Nc1ccc2c(c1)OCO2	inconclusive: -53.8%
CCOc1ccc(N2C(=O)CC(N(Cc3ccco3)C(=O)CC)C2=O)cc1 (configuration not stated)	inconclusive: -58.4%
CC1CCCC(NC(=O)c2ccc3c(c2)NC(=O)CS3)C1C (configuration not stated)	inactive: 0%
COc1ccccc1NC(=O)C1CC(C)OC1=O (configuration not stated)	inactive: 8.71%
CC1CC/C(=C\c2ccc3c(c2)OCO3)C(=O)/C1=C/c1ccc2c(c1)OCO2 (configuration not stated)	inconclusive: -51.9%
O=C(C[n+]1cccc(CNC(=O)c2ccc(OC(F)F)cc2)c1)Nc1ccc(SC(F)F)cc1	inactive: 39.8%
CC(C)CC1c2[nH]c3ccccc3c2CCN1CCCn1cccn1 (configuration not stated)	inactive: -12%

SMILES	activity change, negative = inhibition
CS(=O)(=O)N(CC(=O)NCc1ccncc1)c1cc(Cl)cc(Cl)c1	inconclusive: -56.6%
Cc1ccc(S(=O)(=O)N2CCOCC2)cc1NC(=O)COc1ccccc1Cc1ccccc1	inconclusive: -53.8%
CCN(CC#CCC(O)(c1ccccc1)c1ccccc1)C(C)C	inconclusive: -49.9%
CCN1CCN(c2cc(C)c3cc(NC(=S)N4CCCCC4)ccc3n2)CC1	inconclusive: -42.4%
CC(CCc1ccccc1)NC(=O)C1CCCN(C(=O)c2cc3sccc3n2C)C1 (configuration not stated)	inconclusive: -44.5%
CC(=O)NC(C)(C)C1CC=C(C)/C(=N\O)C1 (configuration not stated)	inconclusive: -44.7%
CCOc1ccc(CCNC(=O)C2CC(C)=CCC2C(=O)O)cc1OCC (configuration not stated)	inconclusive: -45.2%
O=C(Nc1ccc(N2CCN(Cc3ccccc3F)CC2)cc1)c1ccc([N+](=O)[O-])o1	active: -100%
O=C1CCCN1CCCN1CC(C(=O)N(CCO)Cc2ccccc2)CCC1=O (configuration not stated)	inactive: 19%
CC(C)CCSc1cc(NCCO)c([N+](=O)[O-])c2nonc12	inconclusive: -42.4%
CCC[C@@H](CNC)NC[C@H](Cc1ccccc1)NCCCCc1ccccc1	inconclusive: -48.7%
COc1ccccc1NC(=O)C(=O)NCCc1csc(-c2cccc(F)c2)n1	inactive: -0.202%
Cc1cc(-c2csc(NC(=O)c3ccc(=O)[nH]c3)n2)c(C)n1Cc1ccco1	inconclusive: -40.7%
C=CCOc1ccc(/C=N/NC(=O)C2CCCC2)cc1OCC	inconclusive: -44.6%
Oc1ccc2c(c1)oc1cc(O)ccc12	inconclusive: -51.9%
COc1ccc(S(=O)(=O)N2CCN(c3ccccc3)CC2)cc1OC	inconclusive: -52.9%
O=c1cc(-c2ccccc2Cl)oc2c([N+](=O)[O-])c(O)cc(O)c12	active: -72.1%
Cc1ccc(S(=O)(=O)N2CCN(C(=O)CC(C)n3nc(C)c(Cl)c3C)CC2)cc1C (configuration not stated)	inactive: -9.93%
O=C(c1ccoc1)N1CCN(c2cc(-c3ccco3)nc3cc(-c4ccccc4)nn23)CC1	active: -73%
COc1ccc(-c2nc3ccc(N4CCCC4)cc3c(=O)[nH]2)cc1OC	inactive: -2.19%
Cn1c(=O)[nH]c(=O)c2c1nc([N+](=O)[O-])n2Cc1ccccc1	active: -97.2%
CCCCc1cc(=O)oc2cc(OCC(=O)NC3CCN(Cc4ccccc4)CC3)ccc12	inconclusive: -45.6%

Reformatted bar-delimited: five of the compounds above.
SMILES | activity change, negative = inhibition
CS(=O)(=O)N(CC(=O)NCc1ccncc1)c1cc(Cl)cc(Cl)c1 | inconclusive: -56.6%
Cc1ccc(S(=O)(=O)N2CCOCC2)cc1NC(=O)COc1ccccc1Cc1ccccc1 | inconclusive: -53.8%
CCN(CC#CCC(O)(c1ccccc1)c1ccccc1)C(C)C | inconclusive: -49.9%
CCN1CCN(c2cc(C)c3cc(NC(=S)N4CCCCC4)ccc3n2)CC1 | inconclusive: -42.4%
CC(CCc1ccccc1)NC(=O)C1CCCN(C(=O)c2cc3sccc3n2C)C1 (configuration not stated) | inconclusive: -44.5%

Remaining list, next part.

SMILES	activity change, negative = inhibition
Cc1ccc(OCC(=O)N(C)CC(=O)N(CC(C)C)c2c(N)n(CC(C)C)c(=O)[nH]c2=O)c(C)c1	inconclusive: -45%
C/C(=N\Nc1ccc2nncn2n1)c1ccccn1	active: -96.1%
CN1C(=O)C(C2(O)C(=O)N(Cc3ccccc3)c3cc([N+](=O)[O-])ccc32)c2ccccc21 (configuration not stated)	active: -78.8%
COc1ccccc1CNC(=O)C(NS(=O)(=O)c1cccs1)C(C)C (configuration not stated)	inconclusive: -57.7%
Cc1noc(NS(=O)(=O)c2ccc(NC(=O)C34CC5CC(C3)CC(n3cnc(Br)n3)(C5)C4)cc2)c1C	inconclusive: -51.6%
Cc1ccc(-c2c(CN3CCN(c4cccc(C(F)(F)F)c4)CC3)csc2C)cc1	inactive: -13.7%
Cc1cc(C)c(S(=O)(=O)Nc2ccc3c(c2)CCC3)c(C)c1	active: -84.9%
CCN1CCN(CCCNC(=O)c2cnn(-c3ccccc3)c2C2CCN(C(=O)OC(C)(C)C)CC2)CC1	inconclusive: 0%
CCOc1ccccc1NC(=O)c1ccc(Cl)c(NC(=O)CC(c2ccccc2)c2ccccc2)c1	inactive: -35.7%
COc1cc(OC)c(OC)cc1/C=C1\CCC/C(=C\c2cc(OC)c(OC)cc2OC)C1=O	active: -90.2%
Cc1sc2ncnc(N(C)Cc3ccco3)c2c1C	active: -70.8%
COC(=O)C(C)(C)ONC(=O)Nc1ccccc1[N+](=O)[O-]	inconclusive: -49.7%
O=S(=O)(c1ccc(F)cc1)N1CCN(C(=S)NCc2ccco2)CC1	inconclusive: -59.2%
CCOC(=O)CSc1nc(=O)n2cccc(C)c2n1	inconclusive: -40.8%
Cc1cc2nc(-c3ccc4c(c3)CCC4)ccn2n1	inconclusive: -53.2%
Cc1ccc(CSCC(=O)N2CCN(c3ccccc3)CC2)cc1	inconclusive: -40.1%
C=CCn1c(N2CCN(c3ccc(OC)cc3)CC2)nc2c1c(=O)[nH]c(=O)n2C	inconclusive: -42.2%
Cc1cc2ccccn2c1C(=O)c1cccc([N+](=O)[O-])c1	inconclusive: -47.8%
c1ccc(COc2ccc(OCCCN3CCCCC3)cc2)cc1	inactive: 56.4%
Cc1oc2c(c(C)cc3oc(=O)c(CC(=O)NCCc4ccccc4)c(C)c32)c1C	inconclusive: -41.1%
O=C(CCC(=O)N(CC(=O)NC1CCCCC1)Cc1cccs1)Nc1nccs1	inactive: -4.58%
Cc1nc(N)nc(N)c1CCCc1ccc(Cl)c(Cl)c1	active: -87.1%

SMILES	activity change, negative = inhibition
Cc1[nH]c2c(Cl)cccc2c1CCNC(=O)C1CCCCC1C(=O)OCC(F)(F)F (configuration not stated)	inconclusive: -42.8%
Cc1ccc2c(c1)N(C(=O)CCC(=O)Nc1ccccc1Br)CC(C)O2 (configuration not stated)	inconclusive: -48.3%
CCCCc1nc(N2CCOCC2)c(C#N)c2c1CCCC2	inconclusive: -40.1%
Cc1cccc(NC(=O)c2c(C)oc3ncn(CC(C)C)c(=O)c23)n1	inactive: 3.54%
CC(=O)c1cc2c(cc1NS(=O)(=O)c1ccccc1Br)OCO2	inactive: -11.6%
CC(C)(C)c1ccc(SC2=C[C@@]3(O)CC[C@@H](O)[C@@](Sc4ccc(C(C)(C)C)cc4)(C2=O)[C@H]3O)cc1	inconclusive: -54.1%
Cc1ccc(C)c(NC(=S)NCCc2ccc(F)cc2)c1	inconclusive: -47.8%
Cc1ccsc1C(=O)C1CCCN(Cc2cccn2-c2ccc(Cl)cn2)C1 (configuration not stated)	inconclusive: -47.9%
CC(C)Nc1nnc(SCC(=O)/C=C2\N(C)c3ccccc3C2(C)C)s1	active: -65.1%
COc1cc(OC)c(OC)cc1/C=N/NC(=O)C[n+]1ccccc1	inconclusive: -40.6%
COc1cccc(/C=C2\N=C(c3c(-c4ccccc4)noc3C)OC2=O)c1	inconclusive: -56%
N=c1c2ccccc2nnn1-c1ccc(C(F)(F)F)cc1	inconclusive: -56.1%
O=C(CN1C2=NCCCN2c2ccccc21)c1cccc(Br)c1	inactive: 0.167%
CN(C)/C=C/C(=O)/C=C/c1ccc(Cl)cc1Cl	inactive: -16.4%
CCOc1ccc(S(=O)(=O)N2CN(c3cccc(C(C)=O)c3)c3nc4ccccc4nc32)cc1	active: -71.4%
Cc1csc2nc(-c3cccc(NC(=O)C(C)C)c3)cn12	inactive: 1.45%
Cc1cccc(C(=O)N/C(=C\c2ccco2)C(=O)N2CCCC2)c1	inconclusive: -42.3%
O=S(=O)(c1ccc(Cl)cc1)N1CN(CC2CCCO2)c2nc3ccccc3nc21 (configuration not stated)	inconclusive: -53.3%
CC(OC(=O)c1snc(C(=O)NC2CCCCC2)c1N)C(=O)NC(C)(C)C (configuration not stated)	inconclusive: -54.9%
CCOc1ccc(S(=O)(=O)NCCC(=O)N2CCC(Cc3ccccc3)CC2)cc1	inconclusive: -40.2%
CCOc1cc(NC(=S)NCc2ccco2)c(OCC)cc1NC(=O)c1ccco1	inconclusive: -44.9%
